This note sets out measurements from PubChem BioAssay AID493014 (National Center for Advancing Translational Sciences (NCATS), 2011).

Structures are written as SMILES. “And” between values parts separate entries of the source, which are not always exact repeats. Identical values can stand only once. This is one part of the list. Further columns of the screen follow, without active or inactive calls. Compounds called inactive in the main read-out are mostly missing here. Words in brackets tell the shape of the fitted curve; partial curves, single points and poor fits give uncertain potencies.

The nature of the test: qHTS Assay to Find Inhibitors of Chronic Active B-Cell Receptor Signaling. The conditions noted are these: ABC-DLBCL IkBa-CBG/CBR reporter, luminescence ratio (green luciferase fused to IkBa over red control in TMD8 lymphoma cells), 4 h. The procedure, abridged:
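TMD8 ABC-DLBCL cells carrying doxycycline-inducible green luciferase fused to IkappaBalpha plus unfused red luciferase were exposed to compounds (up to 46 uM) for 4 hrs at 37C. Activity came from the overlap-corrected green/red luminescence ratio.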

Where [1] appears, read: measured here: CBR red luminescence, cell number.
Where [2] appears, read: measured here: IkBa-CBG green luminescence.

With `COc1ccc(CCNC(=O)C(=O)c2cn(CC(=O)N3CCOCC3)c3ccccc23)cc1OC`, under setting [1], the AC50 is 1.58 µM [falling, full curve, poor fit].

Turning to `CCOC(=O)Cn1cc(C#N)c2cccc(CC)c21`, the concentration at half-maximal activity (AC50) under setting [1] is 35.5 µM [rising, single point].

As to `CCN1CCN(c2cc(N3CCc4ccccc4C3)c(F)cc2[N+](=O)[O-])CC1`, the concentration at half-maximal activity (AC50) under setting [1] is 29.1 µM [falling, single point].

On to `Cc1cccc(C)c1NS(=O)(=O)c1ccc(NC(=O)c2ccc(Cl)c([N+](=O)[O-])c2)cc1`, for which the AC50 under setting [1] is 4.47 µM [falling, full curve, poor fit].

Turning to `CCC(=O)N1CCc2cc(Br)cc(S(=O)(=O)N3CCC(C(=O)Nc4ccc(OC)cc4)CC3)c21`, the AC50 under setting [1] is 14.1 µM [rising, partial curve].

As to `CCN1CCN(C(=S)c2ccc(Cl)c(Cl)c2)CC1`, the AC50 is, setting by setting: under setting [1], 2.06 µM [falling, partial curve, poor fit]; under setting [2], 3.26 µM [rising, partial curve, poor fit].

On to `COc1ccc(NC(=O)CSc2nc(-c3cccs3)cc(C(F)(F)F)n2)cc1OC`, for which the AC50 under setting [1] was 15.8 µM [rising, partial curve, poor fit].

Regarding `CCOC(=O)c1ccc(N/C=C/C(=O)c2ccc(OC)c(OC)c2)cc1`, under setting [1], the AC50 was 1.12 µM [falling, full curve, poor fit].

Turning to `O=C(NNC(=O)C(c1ccccc1)c1ccccc1)c1ccccn1`, the AC50 reads like this: under setting [1], 3.26 µM [rising, full curve]; under setting [2], 16.4 µM [falling, partial curve, poor fit].

For `CCOCc1nnc(NC(=O)COc2ccc3c(c2)OCO3)s1`, under setting [1], the AC50 was 0.562 µM [falling, full curve, poor fit].

With `Cc1ccc(NC(=O)CCC(=O)N/N=C/c2coc3ccccc3c2=O)cc1`, the AC50 under setting [1] was 25.1 µM [falling, single point].

For `Cc1sc(Nc2ccc([N+](=O)[O-])cc2)nc1-c1c(C)n(C)n(-c2ccccc2)c1=O`, under setting [1], the AC50 is 3.16 µM [rising, single point].

On to `c1ccc(-c2n[nH]c3ccccc23)cc1`, for which the AC50 under setting [1] was 6.51 µM [falling, single point].

On to `CC(C)(C)C(=O)O/N=C(\N)c1ccc(-c2csnn2)cc1`, for which the AC50 under setting [1] was 7.94 µM [rising, partial curve].

With `Cc1ccc(C)c(-c2[nH]ncc2CN2CCCC(CO)(Cc3ccccc3C)C2)c1` (configuration not stated), under setting [1], the AC50 was 15.8 µM [falling, partial curve, poor fit].

As for `Nc1c(C(=O)Nc2ccc3c(c2)OCCO3)nnn1Cc1ccccc1Cl`, the AC50 under setting [1] was 6.51 µM [falling, partial curve, poor fit].

For `CC(=O)c1cc2c(cc1N/C(=N/S(=O)(=O)c1ccc(C)cc1)c1ccccc1)OCO2`, the AC50 under setting [1] was 11.2 µM [falling, partial curve, poor fit].

`Cc1nc2ccccc2cc1C(=O)N/N=C/c1cccc([N+](=O)[O-])c1`: under setting [1], the AC50 was 1.84 µM [rising, partial curve, poor fit].

As for `CCOC(=O)C1CCCN(S(=O)(=O)c2ccc(F)c(C(=O)Nc3ccc(F)c(F)c3)c2)C1` (configuration not stated), the AC50 under setting [1] is 7.94 µM [falling, partial curve].

On to `COc1cccc(CNC(=O)C2CCCN(c3nn4c(=O)cc(C)nc4s3)C2)c1` (configuration not stated), for which, under setting [1], the AC50 was 11.2 µM [rising, partial curve].

For `CSCC[C@H](NC(=O)[C@@H]1Cc2ccccc2CN1)C(=O)Nc1cccc(C)c1`, the AC50 under setting [1] was 20 µM [falling, single point].

With `CCCn1c(=S)[nH]c2cc(C(=O)NCC3CCCO3)ccc2c1=O` (configuration not stated), the half-maximal activity concentration (AC50) under setting [1] was 0.259 µM [falling, full curve].

On to `Cc1cccc(C(=O)O/N=C2\CCS(=O)(=O)c3sccc32)c1`, for which, under setting [1], the AC50 was 12.6 µM [falling, partial curve].

As for `CCc1ccc(CN(C)CCc2ccccn2)cc1`, the AC50 under setting [1] is 23.1 µM [rising, single point].

As for `COCCn1c(Cc2ccccc2)nnc1SC(C)C(=O)NC1CC1` (configuration not stated), the AC50 under setting [1] is 0.731 µM [rising, partial curve, poor fit].

Regarding `Cc1cc(N2CCN(c3ccccc3)CC2)n2cc(-c3ccccc3)nc2n1`, the AC50 under setting [1] is 17.8 µM [falling, single point].

Take `CCSc1nnc(NC(=O)c2nc3nc(C)cc(C)n3n2)s1`: under setting [1], the AC50 was 10 µM [falling, partial curve].

Regarding `Cc1cccc(SCc2noc(C(=O)NC(C)C)c2C(=O)O)c1`, the AC50 under setting [1] is 35.5 µM [falling, single point].

With `CS(=O)(=O)c1ccc(Sc2nc3ccccc3[nH]2)c([N+](=O)[O-])c1`, the AC50 under setting [1] was 14.1 µM [falling, partial curve].

In the case of `NC(=O)c1cccc(-c2noc(-c3ccccc3F)n2)c1`, under setting [1], the AC50 is 8.2 µM [falling, partial curve] and 13 µM [falling, partial curve].

In the case of `O=C(c1ccccc1)c1cc(-c2ccccn2)c(N2CCOCC2)s1`, under setting [1], the AC50 is 0.794 µM [falling, full curve, poor fit].

Consider `COCc1cc(=O)n2c([nH]c3ccccc32)c1C#N`, for which, under setting [1], the AC50 was 0.731 µM [falling, full curve].

Take `Cc1ccc2[nH]c3c(c2c1)CN(C(=O)CN1CCN(Cc2ccc4c(c2)OCO4)CC1)CC3`: under setting [1], the AC50 was 28.2 µM [falling, single point].

As for `Nc1cc2c([N+](=O)[O-])cccc2o1`, the AC50 under setting [1] was 5.01 µM [falling, partial curve, poor fit].

Regarding `Cc1ccc(S(=O)(=O)NCCNC(=O)c2cc(OCC(F)(F)F)ccc2OCC(F)(F)F)cc1`, under setting [1], the AC50 was 15.8 µM [rising, partial curve].

Regarding `CC(/C=N/NC(=O)c1ccco1)=C\c1ccccc1`, the AC50 under setting [1] is 12.6 µM [falling, partial curve].

As for `O=C(COc1ccccc1)NCCSCc1ccco1`, the AC50 under setting [1] is 23.1 µM [rising, single point].

`COc1cc(/C=C\C(=O)NCc2ccc3c(c2)cc(C)n3C)cc(OC)c1OC`: the AC50 under setting [2] is 18.4 µM [falling, single point].

Take `COC(=O)CCC(=O)N(CCN(C(=O)CCC(=O)OC)c1ccccc1)c1ccccc1`: the AC50 under setting [1] is 35.5 µM [falling, single point].

For the compound `C/C(=N\NC(=O)c1ccccc1O)c1ccc(Br)s1`, the AC50 under setting [1] is 1.64 µM [falling, full curve].

`CCn1nc(C(=O)Nc2nc3ccccc3[nH]2)c2ccccc2c1=O`: under setting [1], the AC50 was 7.31 µM [falling, partial curve].

Consider `CCCCCCC1CC(CC(=O)Nc2ccc([N+](=O)[O-])cc2)C(=O)O1` (configuration not stated), for which, under setting [1], the half-maximal activity concentration (AC50) is 32.6 µM [falling, single point].

For the compound `Cc1ccc2c(c1)NC(=O)C(CC(=O)NCCCN1CCCCC1)O2` (configuration not stated), the AC50 under setting [1] was 29.1 µM [falling, single point].

In the case of `COc1cc(CNCc2ccccc2)c(Br)cc1OC1CCCC1`, the AC50 under setting [1] was 35.5 µM [falling, single point].

On to `O=c1[nH]c2c(c3c1CCCC3)CCCC2`, for which the AC50 under setting [1] is 23.1 µM [rising, single point].

For the compound `CC1(C)Cc2c(c(N3CCCC3)nc3sc(C(=O)Nc4ccccc4)c(N)c23)CO1`, under setting [1], the AC50 is 14.1 µM [falling, partial curve, poor fit].

Take `COCCNc1ccc([N+](=O)[O-])cc1C(=O)Nc1cccc(C)n1`: the AC50 under setting [1] was 35.5 µM [falling, single point].

Consider `COc1ccccc1NC(=O)c1ccc(-c2ccccc2F)o1`, for which the AC50 under setting [1] was 9.2 µM [falling, partial curve, poor fit].

In the case of `O=C(COC(=O)c1ccc(Cl)c([N+](=O)[O-])c1)Nc1ccccc1OC(F)F`, the concentration at half-maximal activity (AC50) under setting [1] is 7.31 µM [falling, partial curve, poor fit].

As for `C=CCOc1c(Cl)cc(CNc2ccc(C)c(Cl)c2)cc1OC`, the AC50 under setting [1] was 2.91 µM [rising, full curve] and the AC50 under setting [2] was 2.91 µM [falling, full curve].

Regarding `COc1ccc(C=O)cc1COc1ccc(C)cc1[N+](=O)[O-]`, the AC50 under setting [1] is 22.4 µM [rising, single point] and the AC50 under setting [2] is 20 µM [falling, single point].

As for `COc1ccccc1NC(=O)c1cnc(SCC(=O)NCC2CCCO2)n(C)c1=O` (configuration not stated), under setting [1], the AC50 was 4.61 µM [falling, partial curve].

Consider `COc1ccccc1C(=O)NNC1=NS(=O)(=O)c2ccccc21`, for which the AC50 under setting [1] is 11.2 µM [falling, partial curve].

In the case of `CCN(CC(=O)NCc1cccs1)C(=O)CCOc1ccccc1C`, under setting [1], the AC50 is 17.8 µM [rising, single point].

For `O=C(CC(Sc1ccccc1)c1cccs1)c1ccco1` (configuration not stated), the AC50 under setting [1] is 22.4 µM [falling, single point].

For `O=C(NNc1ccc([N+](=O)[O-])cc1)c1ccccc1F`, the AC50 under setting [1] was 15.8 µM [falling, single point].

Take `C=CCOc1ccccc1CNc1ccccc1C`: under setting [1], the AC50 is 18.4 µM [rising, partial curve, poor fit].

As for `CCCN(CC(=O)Nc1ccccc1C)C(=O)COC(=O)CSc1ccc([N+](=O)[O-])cc1`, the AC50 under setting [1] was 16.4 µM [falling, single point].

For `CCc1ccc(/C=C2\SC(=S)N(CCC(=O)N3CCN(C)CC3)C2=O)cc1`, the AC50 under setting [1] is 12.6 µM [falling, partial curve, poor fit].

As to `CS(=O)(=O)N(Cc1ccc(C(=O)NN=C2CCCC2)cc1)c1ccccc1`, the AC50 under setting [1] was 20.6 µM [falling, partial curve].

On to `N=C1C(c2nc(-c3ccc(Cl)cc3)cs2)=C(O)CN1NC(=O)c1ccc(O)cc1`, for which the AC50 under setting [1] was 0.355 µM [rising, full curve, poor fit].

`COc1cc(C(=O)NCc2ccc(-n3cccc3)cc2)cc(OC)c1OC`: the AC50 under setting [1] is 10 µM [rising, partial curve, poor fit].

With `COc1ccc2nc(C)c(C(=O)NN)cc2c1`, under setting [1], the AC50 is 0.0058 µM [falling, full curve, poor fit].
